Some of the results follow. The data scatter; read single values as rough.
Columns and labels:
[1] = compound: ClCC(=O)N[C@@H]1CCCc2ccccc12; assay: log2 mean competition ratio of IA-DTB cysteine labelling (DMSO/compound) (log2 ratio); higher = stronger cysteine engagement by compound; settings: treatment time: 4 h, cell line lysate: HEK293T
Experimental: (§1)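 IA-DTB competitive cysteine chemoproteomics in HEK293T RIPA lysate. Lysates were treated with compound 29 or 30 at 50 or 200 µM for 4 h, then IA-DTB (500 µM, 1 h), trypsin-digested, NeutrAvidin-enriched and analysed by diaPASEF. Competition ratio = intensity DMSO / intensity compound (n=4 treated, n=64 DMSO); binding: mean log2 CR ≥ 1 and p ≤ 0.05 plus QC filters. Target is the cysteine site.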

Amino acid sequences for entries named in this document (tags omitted). A change or cut given only in a name is not applied to a line headed by its entry. Residues count along the entry.
UniProt Q14126: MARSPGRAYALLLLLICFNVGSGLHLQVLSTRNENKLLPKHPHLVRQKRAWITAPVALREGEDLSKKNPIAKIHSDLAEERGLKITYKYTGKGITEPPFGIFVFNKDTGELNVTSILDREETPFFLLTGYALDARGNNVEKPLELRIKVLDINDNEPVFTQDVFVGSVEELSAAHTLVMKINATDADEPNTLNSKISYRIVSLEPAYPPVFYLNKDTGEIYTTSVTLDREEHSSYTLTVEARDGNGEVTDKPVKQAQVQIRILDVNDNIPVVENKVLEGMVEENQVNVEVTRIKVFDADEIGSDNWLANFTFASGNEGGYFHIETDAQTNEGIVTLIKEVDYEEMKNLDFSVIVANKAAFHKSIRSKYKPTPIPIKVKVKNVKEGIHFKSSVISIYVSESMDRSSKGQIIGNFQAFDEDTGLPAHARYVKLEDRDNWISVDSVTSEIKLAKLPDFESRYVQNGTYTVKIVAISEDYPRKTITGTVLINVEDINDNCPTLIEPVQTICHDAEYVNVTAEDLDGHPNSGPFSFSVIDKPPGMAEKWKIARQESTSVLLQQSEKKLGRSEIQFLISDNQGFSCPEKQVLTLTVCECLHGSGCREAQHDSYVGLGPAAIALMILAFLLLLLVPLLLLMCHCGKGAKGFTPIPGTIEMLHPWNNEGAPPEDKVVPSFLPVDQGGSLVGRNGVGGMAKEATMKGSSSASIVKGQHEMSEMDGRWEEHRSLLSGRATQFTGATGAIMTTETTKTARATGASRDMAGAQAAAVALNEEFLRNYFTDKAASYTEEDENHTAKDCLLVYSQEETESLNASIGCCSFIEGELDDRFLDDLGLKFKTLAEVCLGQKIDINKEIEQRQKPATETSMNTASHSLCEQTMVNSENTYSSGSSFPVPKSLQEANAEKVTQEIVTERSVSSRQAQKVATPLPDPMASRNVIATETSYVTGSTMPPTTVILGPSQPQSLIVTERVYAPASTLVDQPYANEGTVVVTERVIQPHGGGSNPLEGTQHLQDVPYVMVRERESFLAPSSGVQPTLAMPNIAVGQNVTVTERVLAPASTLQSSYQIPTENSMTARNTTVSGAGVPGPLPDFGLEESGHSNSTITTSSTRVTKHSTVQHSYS
UniProt Q8N5X7: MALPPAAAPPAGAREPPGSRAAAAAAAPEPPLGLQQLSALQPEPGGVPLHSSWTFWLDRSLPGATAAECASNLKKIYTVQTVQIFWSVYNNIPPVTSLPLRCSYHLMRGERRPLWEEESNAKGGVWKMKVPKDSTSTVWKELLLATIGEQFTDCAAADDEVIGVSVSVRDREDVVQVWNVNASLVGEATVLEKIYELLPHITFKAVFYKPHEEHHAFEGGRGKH
UniProt O75822: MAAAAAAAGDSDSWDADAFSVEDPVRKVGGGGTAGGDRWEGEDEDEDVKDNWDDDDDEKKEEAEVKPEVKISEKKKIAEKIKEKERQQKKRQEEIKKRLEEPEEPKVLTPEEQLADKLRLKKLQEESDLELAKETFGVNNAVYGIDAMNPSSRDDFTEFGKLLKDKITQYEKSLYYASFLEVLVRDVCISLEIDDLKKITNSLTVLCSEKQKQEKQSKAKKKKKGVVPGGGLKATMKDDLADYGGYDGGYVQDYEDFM
UniProt P05198, whole entry, looked up: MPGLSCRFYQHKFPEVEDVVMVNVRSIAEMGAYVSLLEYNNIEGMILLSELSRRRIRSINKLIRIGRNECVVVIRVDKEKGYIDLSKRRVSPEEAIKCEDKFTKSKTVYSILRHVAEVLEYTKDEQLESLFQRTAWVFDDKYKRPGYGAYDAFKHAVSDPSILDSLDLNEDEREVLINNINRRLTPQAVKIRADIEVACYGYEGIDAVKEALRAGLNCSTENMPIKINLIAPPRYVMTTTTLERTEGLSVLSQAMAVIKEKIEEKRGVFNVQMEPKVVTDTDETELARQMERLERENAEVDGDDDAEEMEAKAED
UniProt P55039: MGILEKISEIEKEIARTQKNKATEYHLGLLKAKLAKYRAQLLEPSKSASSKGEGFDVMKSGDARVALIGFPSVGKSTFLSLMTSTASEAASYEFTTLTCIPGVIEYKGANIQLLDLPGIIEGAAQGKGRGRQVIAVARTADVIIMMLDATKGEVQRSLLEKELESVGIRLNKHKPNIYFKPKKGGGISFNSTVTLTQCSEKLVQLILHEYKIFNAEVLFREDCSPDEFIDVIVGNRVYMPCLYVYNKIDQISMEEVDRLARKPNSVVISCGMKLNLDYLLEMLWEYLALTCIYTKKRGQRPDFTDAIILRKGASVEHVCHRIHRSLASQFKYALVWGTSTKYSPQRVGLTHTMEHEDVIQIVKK
UniProt P60981: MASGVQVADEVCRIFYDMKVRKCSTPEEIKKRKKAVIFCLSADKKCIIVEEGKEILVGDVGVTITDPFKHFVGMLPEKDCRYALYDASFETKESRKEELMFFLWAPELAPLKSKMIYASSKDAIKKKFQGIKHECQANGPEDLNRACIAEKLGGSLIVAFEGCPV
UniProt P15924: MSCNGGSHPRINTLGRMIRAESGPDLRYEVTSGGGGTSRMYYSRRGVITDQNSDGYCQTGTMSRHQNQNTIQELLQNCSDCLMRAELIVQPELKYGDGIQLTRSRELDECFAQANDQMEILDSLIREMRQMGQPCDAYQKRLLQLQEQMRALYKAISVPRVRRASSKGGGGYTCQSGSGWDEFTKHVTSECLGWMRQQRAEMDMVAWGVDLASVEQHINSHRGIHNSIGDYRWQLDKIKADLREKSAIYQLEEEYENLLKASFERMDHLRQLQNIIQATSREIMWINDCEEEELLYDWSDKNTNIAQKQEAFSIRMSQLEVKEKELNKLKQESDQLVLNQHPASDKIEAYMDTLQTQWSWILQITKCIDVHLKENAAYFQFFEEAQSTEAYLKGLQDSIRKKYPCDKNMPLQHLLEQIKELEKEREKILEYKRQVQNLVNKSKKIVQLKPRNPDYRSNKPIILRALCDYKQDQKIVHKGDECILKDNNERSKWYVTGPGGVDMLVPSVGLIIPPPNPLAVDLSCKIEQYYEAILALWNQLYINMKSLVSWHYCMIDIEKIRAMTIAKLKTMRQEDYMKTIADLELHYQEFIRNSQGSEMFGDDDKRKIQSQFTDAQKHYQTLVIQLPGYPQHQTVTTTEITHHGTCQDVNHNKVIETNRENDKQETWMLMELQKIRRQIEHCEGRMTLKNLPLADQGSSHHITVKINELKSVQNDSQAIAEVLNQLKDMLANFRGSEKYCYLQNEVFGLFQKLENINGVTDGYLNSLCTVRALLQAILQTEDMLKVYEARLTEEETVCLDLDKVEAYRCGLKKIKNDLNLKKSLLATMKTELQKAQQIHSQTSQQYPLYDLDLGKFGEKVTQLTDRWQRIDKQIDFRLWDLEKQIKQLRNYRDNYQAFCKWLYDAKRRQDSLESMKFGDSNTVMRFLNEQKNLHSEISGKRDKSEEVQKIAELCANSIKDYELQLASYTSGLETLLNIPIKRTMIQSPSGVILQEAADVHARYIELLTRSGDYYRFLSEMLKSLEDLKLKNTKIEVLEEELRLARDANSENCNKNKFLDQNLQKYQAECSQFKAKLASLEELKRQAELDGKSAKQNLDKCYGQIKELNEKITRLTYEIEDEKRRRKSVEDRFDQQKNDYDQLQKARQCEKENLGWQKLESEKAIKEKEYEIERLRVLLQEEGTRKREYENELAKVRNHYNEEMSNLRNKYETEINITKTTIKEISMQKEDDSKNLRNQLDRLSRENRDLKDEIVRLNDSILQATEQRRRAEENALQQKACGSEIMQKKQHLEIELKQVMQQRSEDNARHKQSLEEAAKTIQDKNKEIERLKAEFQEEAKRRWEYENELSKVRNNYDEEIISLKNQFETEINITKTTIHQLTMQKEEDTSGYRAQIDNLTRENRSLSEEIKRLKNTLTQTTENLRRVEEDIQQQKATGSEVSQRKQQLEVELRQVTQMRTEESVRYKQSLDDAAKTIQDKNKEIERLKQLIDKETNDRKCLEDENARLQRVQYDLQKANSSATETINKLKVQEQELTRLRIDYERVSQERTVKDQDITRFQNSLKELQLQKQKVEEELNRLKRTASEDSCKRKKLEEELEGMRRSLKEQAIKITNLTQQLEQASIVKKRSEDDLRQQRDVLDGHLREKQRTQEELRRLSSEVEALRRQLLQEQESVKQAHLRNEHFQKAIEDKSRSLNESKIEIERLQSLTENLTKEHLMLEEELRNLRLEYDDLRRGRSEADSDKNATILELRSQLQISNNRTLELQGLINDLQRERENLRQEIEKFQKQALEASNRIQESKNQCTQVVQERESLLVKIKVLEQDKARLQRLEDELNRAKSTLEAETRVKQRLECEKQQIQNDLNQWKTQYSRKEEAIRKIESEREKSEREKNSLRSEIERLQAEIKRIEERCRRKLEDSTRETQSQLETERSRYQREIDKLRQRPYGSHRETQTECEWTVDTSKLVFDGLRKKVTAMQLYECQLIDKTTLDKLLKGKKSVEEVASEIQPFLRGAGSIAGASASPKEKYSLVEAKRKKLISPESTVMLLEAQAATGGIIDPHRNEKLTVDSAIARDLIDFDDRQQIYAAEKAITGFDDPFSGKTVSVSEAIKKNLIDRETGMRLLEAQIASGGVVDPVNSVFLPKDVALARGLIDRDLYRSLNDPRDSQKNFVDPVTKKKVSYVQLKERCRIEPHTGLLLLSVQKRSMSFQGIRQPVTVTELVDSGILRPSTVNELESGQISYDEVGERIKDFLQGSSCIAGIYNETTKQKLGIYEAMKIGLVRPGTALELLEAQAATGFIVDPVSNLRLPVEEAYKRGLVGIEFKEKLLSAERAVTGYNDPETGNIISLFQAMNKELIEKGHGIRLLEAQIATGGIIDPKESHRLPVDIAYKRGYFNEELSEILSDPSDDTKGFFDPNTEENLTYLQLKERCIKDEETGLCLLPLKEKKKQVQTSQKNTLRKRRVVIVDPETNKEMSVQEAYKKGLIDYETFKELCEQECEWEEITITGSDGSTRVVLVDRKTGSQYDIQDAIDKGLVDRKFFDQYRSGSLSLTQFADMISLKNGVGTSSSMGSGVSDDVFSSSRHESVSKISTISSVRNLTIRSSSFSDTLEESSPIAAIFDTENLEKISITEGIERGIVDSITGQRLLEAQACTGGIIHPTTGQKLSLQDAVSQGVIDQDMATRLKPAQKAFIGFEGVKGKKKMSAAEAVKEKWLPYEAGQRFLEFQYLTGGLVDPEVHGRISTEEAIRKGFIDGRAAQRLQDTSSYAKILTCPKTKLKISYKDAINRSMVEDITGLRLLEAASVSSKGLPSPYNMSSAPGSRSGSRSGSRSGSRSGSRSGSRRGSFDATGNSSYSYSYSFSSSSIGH
UniProt Q96G46: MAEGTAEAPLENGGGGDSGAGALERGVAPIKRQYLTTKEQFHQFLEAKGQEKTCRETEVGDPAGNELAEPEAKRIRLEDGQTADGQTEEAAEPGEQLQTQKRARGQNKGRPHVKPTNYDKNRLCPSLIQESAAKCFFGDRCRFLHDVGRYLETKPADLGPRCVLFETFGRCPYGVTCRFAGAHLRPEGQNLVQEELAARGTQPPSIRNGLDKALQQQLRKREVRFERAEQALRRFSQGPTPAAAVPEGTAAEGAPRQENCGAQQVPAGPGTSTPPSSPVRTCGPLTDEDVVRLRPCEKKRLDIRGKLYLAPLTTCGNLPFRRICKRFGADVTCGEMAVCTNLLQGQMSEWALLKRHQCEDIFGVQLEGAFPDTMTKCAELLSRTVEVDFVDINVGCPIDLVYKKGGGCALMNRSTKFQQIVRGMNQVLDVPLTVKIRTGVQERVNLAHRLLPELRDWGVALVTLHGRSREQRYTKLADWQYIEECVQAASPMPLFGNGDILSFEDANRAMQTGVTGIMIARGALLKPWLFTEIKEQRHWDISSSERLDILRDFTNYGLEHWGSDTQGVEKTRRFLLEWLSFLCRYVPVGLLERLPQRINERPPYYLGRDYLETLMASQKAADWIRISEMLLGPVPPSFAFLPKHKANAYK
UniProt Q9GZV4, 2-26: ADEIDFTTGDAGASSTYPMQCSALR
UniProt Q15723: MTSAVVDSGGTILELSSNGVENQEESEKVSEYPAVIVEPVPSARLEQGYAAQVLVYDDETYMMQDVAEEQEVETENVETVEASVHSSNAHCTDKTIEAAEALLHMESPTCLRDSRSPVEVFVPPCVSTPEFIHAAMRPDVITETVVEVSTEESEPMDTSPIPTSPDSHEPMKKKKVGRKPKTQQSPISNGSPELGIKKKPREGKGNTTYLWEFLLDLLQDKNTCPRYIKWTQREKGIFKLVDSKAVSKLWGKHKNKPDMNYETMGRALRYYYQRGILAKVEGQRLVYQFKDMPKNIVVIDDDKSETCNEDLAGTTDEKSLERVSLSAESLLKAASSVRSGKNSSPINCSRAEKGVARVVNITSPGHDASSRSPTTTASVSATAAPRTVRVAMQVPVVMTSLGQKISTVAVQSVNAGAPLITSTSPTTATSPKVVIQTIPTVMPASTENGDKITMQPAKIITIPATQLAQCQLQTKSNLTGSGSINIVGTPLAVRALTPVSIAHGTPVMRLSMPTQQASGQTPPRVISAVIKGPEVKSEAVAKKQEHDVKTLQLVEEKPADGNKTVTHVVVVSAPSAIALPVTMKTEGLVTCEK

[2] = compound: ClCC(=O)N[C@H]1CCCc2ccccc12; assay: as above; settings: treatment time: 4 h, cell line lysate: HEK293T
Experimental: as §1

| Target | log2 mean competition ratio ([1]; 50 µM) | log2 mean competition ratio ([1]; 200 µM) | log2 mean competition ratio ([2]; 50 µM) | log2 mean competition ratio ([2]; 200 µM) |
| --- | --- | --- | --- | --- |
| DYNC2H1 C1104 (UniProt Q8NCM8) | 0.354 | -0.202 | – | – |
| DYNLL1 C24 (UniProt P63167) | -0.345 | -0.0409 | – | – |
| ELL2 C308 | -0.152 | -0.0925 | – | – |
| EGLN1 C208 (UniProt Q9GZT9) | 0.0772 | 0.468 | – | – |
| EEF1AKMT1 C79 (UniProt Q8WVE0) | 0.0298 | -0.176 | – | – |
| EFNA5 C164 | 0.226 | 0.0585 | – | – |
| EIF3C C752 (UniProt Q99613) | 0.109 | -0.149 | – | – |
| ECT2 C686 (UniProt Q9H8V3) | -0.0922 | 0.0496 | – | – |
| EFEMP1 C190 (UniProt Q12805) | -0.000442 | 0.254 | – | – |
| DST C4370 (UniProt Q03001) | -0.263 | -0.235 | – | – |
| EIF3A C58 (UniProt Q14152) | -0.463 | 0.0655 | – | – |
| DST C6799 (UniProt Q03001) | -0.403 | 0.0265 | – | – |
| DTX3L C219 (UniProt Q8TDB6) | -0.205 | 0.206 | – | – |
| DSG2 C840 (UniProt Q14126) | -0.253 | -0.077 | – | – |
| EIF2B5 C196 | -0.257 | -0.0518 | – | – |
| DTNB C197 | -0.218 | 0.0416 | – | – |
| EIF3G C169 | 0.0889 | 0.208 | – | – |
| EIF4E3 C69 (UniProt Q8N5X7) | -0.196 | -0.148 | – | – |
| DTL C157 (UniProt Q9NZJ0) | -0.0757 | -0.211 | – | – |
| EGLN1 C201 (UniProt Q9GZT9) | 0.032 | -0.188 | – | – |
| EFTUD2 C166 (UniProt Q15029) | -0.515 | 0.213 | – | – |
| DTX3L C175 (UniProt Q8TDB6) | -0.0622 | 0.253 | – | – |
| EFL1 C831 (UniProt Q7Z2Z2) | 0.179 | -0.0511 | – | – |
| ELL C14 (UniProt P55199) | 0.11 | 0.00767 | – | – |
| EDC3 C137 (UniProt Q96F86) | -0.0735 | 0.114 | – | – |

Exported bar-delimited: part of the list above
Target | log2 mean competition ratio ([1]; 50 µM) | log2 mean competition ratio ([1]; 200 µM) | log2 mean competition ratio ([2]; 50 µM) | log2 mean competition ratio ([2]; 200 µM)
DST C6799 (UniProt Q03001) | -0.403 | 0.0265 | – | –
DTX3L C219 (UniProt Q8TDB6) | -0.205 | 0.206 | – | –
DSG2 C840 (UniProt Q14126) | -0.253 | -0.077 | – | –

Next part.

| Target | log2 mean competition ratio ([1]; 50 µM) | log2 mean competition ratio ([1]; 200 µM) | log2 mean competition ratio ([2]; 50 µM) | log2 mean competition ratio ([2]; 200 µM) |
| --- | --- | --- | --- | --- |
| DYNC1LI2 C191 (UniProt O43237) | 0.0513 | -0.259 | – | – |
| EIF4G3 C340 | 0.239 | -0.185 | – | – |
| DSC3 C814 | -0.162 | 0.308 | – | – |
| EIF4B C457 | 0.131 | -0.393 | – | – |
| EIF3K C190 (UniProt Q9UBQ5) | 0.11 | -0.308 | – | – |
| DUSP11 C117 | -0.169 | -0.432 | – | – |
| EIF5B C635 (UniProt O60841) | 0.0547 | -0.00775 | – | – |
| DSCC1 C75 (UniProt Q9BVC3) | -0.23 | 0.109 | – | – |
| DYNC1H1 C2712 (UniProt Q14204) | 0.201 | -0.00462 | – | – |
| EFR3A C538 (UniProt Q14156) | – | -0.0305 | – | – |
| EIF3J C207 (UniProt O75822) | -0.0258 | -0.194 | – | – |
| EIF2S1 C98 (UniProt P05198) | 0.0516 | -0.304 | – | – |
| DRG2 C270 (UniProt P55039) | 0.0369 | 0.0127 | – | – |
| DTL C544 (UniProt Q9NZJ0) | 0.173 | 0.22 | – | – |
| DSTN C80 (UniProt P60981) | -0.057 | -0.175 | – | – |
| ELAC2 C609 (UniProt Q9BQ52) | 0.00164 | -0.29 | 0.355 | -0.173 |
| DSP C1148 (UniProt P15924) | -0.284 | 0.369 | – | – |
| EDC4 C838 (UniProt Q6P2E9) | -0.0299 | 0.0204 | – | – |
| DSTN C39 (UniProt P60981) | 0.272 | 0.0594 | – | – |
| EED C254 | 0.449 | 0.237 | -0.0541 | 0.0908 |
| EIF4G1 C919 (UniProt Q04637) | -0.191 | -0.0318 | -0.314 | -0.201 |
| DSC3 C471 | -0.265 | 0.26 | – | – |
| DUS3L C408 (UniProt Q96G46) | 0.255 | 0.272 | 0.26 | 0.479 |
| DSC3 C57 | -0.139 | 0.086 | – | – |
| DYNC2H1 C700 (UniProt Q8NCM8) | 0.052 | 0.171 | – | -0.123 |

| Target | log2 mean competition ratio ([1]; 50 µM) | log2 mean competition ratio ([1]; 200 µM) | log2 mean competition ratio ([2]; 50 µM) | log2 mean competition ratio ([2]; 200 µM) |
| --- | --- | --- | --- | --- |
| EFNB1 C314 (UniProt P98172) | 0.0427 | -0.103 | – | – |
| DUS2 C475 (UniProt Q9NX74) | -0.0461 | 0.136 | – | – |
| EEF1B2 C161 (UniProt P24534) | 0.414 | 0.397 | 0.594 | 0.381 |
| EIF2B5 C335 | 0.115 | -0.0747 | 0.526 | -0.00378 |
| E2F7 C400 | -0.0596 | -0.167 | -0.322 | 0.0072 |
| EHMT2 C126 | -0.092 | -0.103 | – | – |
| DST C2061 (UniProt Q03001) | -0.384 | 0.18 | – | – |
| DSP C2656 (UniProt P15924) | -0.0508 | -0.376 | – | – |
| EIF5A2 C22 (UniProt Q9GZV4) | -0.0643 | -0.00382 | – | -0.463 |
| DSC2 C841 (UniProt Q02487) | -0.0508 | -0.129 | – | – |
| DYNC2H1 C1465 (UniProt Q8NCM8) | -0.208 | -0.295 | -0.278 | -0.184 |
| EEF2 C693 (UniProt P13639) | -0.169 | 0.247 | – | – |
| DSN1 C355 (UniProt Q9H410) | -0.086 | 0.392 | -0.183 | 0.228 |
| ELAC2 C87 (UniProt Q9BQ52) | 0.278 | -0.234 | 0.312 | 0.0918 |
| EGFL7 C56 (UniProt Q9UHF1) | 0.428 | 0.657 | – | – |
| EIF2A C306 (UniProt Q9BY44) | 0.084 | 0.00277 | – | – |
| DSP C482 (UniProt P15924) | 0.154 | -0.0838 | – | – |
| EFL1 C670 (UniProt Q7Z2Z2) | -0.0314 | 0.0886 | – | – |
| DYNC1H1 C978 (UniProt Q14204) | -0.112 | 0.109 | 0.362 | 0.212 |
| E2F6 C26 (UniProt O75461) | 0.0575 | 0.141 | – | – |
| ECT2 C796 (UniProt Q9H8V3) | -0.0352 | 0.0648 | – | – |
| EIF2S1 C218 (UniProt P05198) | 0.0692 | -0.0582 | -0.119 | -0.135 |
| ELF2 C110 (UniProt Q15723) | 0.206 | 0.0456 | – | – |

From the supplement of paper PMC11732987, “Enantioselective OTUD7B fragment discovery through chemoproteomics screening and high-throughput optimisation” (Communications Chemistry, 2025)
